Laboratory results: PMC9499467, “Phenanthroindolizidine Alkaloids Isolated from Tylophora ovata as Potent Inhibitors of Inflammation, Spheroid Growth, and Invasion of Triple-Negative Breast Cancer” (International Journal of Molecular Sciences, 2022)

Assays:
NFκB [1] = assay: NFκB inhibition assay (24 h), NFκB-dependent firefly luciferase reporter; assay type: cell-based, human; conditions: 24 h vs 2 h
Protocol: On day 1, 3 × 10^4 NFκB MDA-MB-231-firefly cells were seeded into white 96 well plates (Greiner; #655098). On day 2, the medium was replaced with starvation medium and the cells were pre-incubated for 20 min with either 100 µL of DMSO (Roth; #A994.1) alone at maximal 0.1%, or with the final concentration of the diluted compounds (Table 3). To activate NFκB signaling, cells were stimulated with 20 ng/mL TNFα (Peprotech, Hamburg, Germany; #300-01A). Cell lysis was performed in 20 µL 1× cell lysis buffer according to the manufacturer’s instruction for the Luciferase Assay System (Promega #E1500). NFκB-dependent luminescence was determined as relative light units (RLU) using the microplate reader Spark® (Tecan).

MDA-MB-231 = assay: 2D cell viability (PrestoBlue resazurin) in MDA-MB-231; assay type: cell-based, human; conditions: viability IC50 24 h vs NFκB IC50 24 h
Protocol: Cell viability was determined based on resazurin-reduction in viable cells according to the PrestoBlue^TM Assay. On day 1, MDA-MB-231 (1.5 × 10^4 cells per well or 7.5 × 10^3 cells per well) were seeded into black 96 well plates (Greiner; #655090) in a total volume of 100 µL. On day 2, the compounds or DMSO (Roth; #A994.1) alone at maximal 0.1% were applied (final concentrations after serial dilution shown in Table 3). An amount of 20 µM staurosporine (Sigma-Aldrich; #S5921) served as a positive control. On day 3, the PrestoBlue^TM reagent (Invitrogen^TM, Darmstadt, Germany; #A13262) was applied according to the manufacturer`s instructions. Finally, cell viability-dependent fluorescence was recorded in relative fluorescence units (RFU) with excitation/emission (Exλ/Emλ) at 535/590 nm or 560/590 nm, using the microplate reader Spark® (Tecan).

[2] = test system: 3D co-culture spheroids of MDA-MB-231 and primary murine CAFs; assay: 3D cell viability (ATP content) in TNBC co-culture spheroids; assay type: cell-based, human MDA-MB-231; conditions: 3D vs 2D
Protocol: On day 1, 3000 cells were seeded into a low-attachment 96 well plate (Greiner; #650970). […] Cell viability was determined based on the ATP content in viable cells according to the manufacturer`s instructions (Promega #G9682). Co-culture spheroids were generated for 72 h before they were grown for another 72 h with or without exposure to the compounds. […] Cell viability-dependent luminescence was determined as relative light units (RLU) using the microplate reader Spark® (Tecan).

NFκB [3] = assay: NFκB inhibition assay (2 h), NFκB-dependent nanoluc luciferase reporter; assay type: cell-based, human; conditions: vs compound (1)
Protocol: Experiments were performed according to the published protocol. On day 1, 4 × 10^4 NFκB-MDA-MB-231-nanoluc cells were seeded into white 96 well plates (Greiner; #655098). On day 2, the medium was replaced with starvation medium and the cells were pre-incubated for 20 min with either 100 µL of DMSO (Roth; #A994.1) alone at a concentration of maximal 0.1% or with the final concentration of the diluted compounds (Table 3). To activate NFκB signaling, cells were stimulated with 1 µg/mL LPS (Sigma-Aldrich; #L2630) beforehand. NFκB-dependent luciferase activity was measured according to the manufacturer`s protocol for the Nano-Glo Luciferase Assay System (Promega, Mannheim, Germany; #N1110). NFκB-dependent luminescence was determined as relative light units (RLU) using the microplate reader Spark® (Tecan, Männedorf, Switzerland).

| Structure (SMILES) | fold decrease of NFκB IC50 at 24 h versus 2 h (NFκB [1]) [fold] | fold higher concentration for reduction of cell viability compared to NFκB blockade after 24 h (MDA-MB-231) | fold higher IC50 in 3D co-culture model compared to 2D [2] | factor of decreased NFκB blockade within 2 h compared to compound (1) (NFκB [3]) |
| --- | --- | --- | --- | --- |
| COc1ccc2c3c(c4cc(OC)c(OC)cc4c2c1)CN1CCCC1C3O (stereo not shown) [Compound (1), O-methyltylophorinidine] | 5 | about 4 fold | – | – |
| COc1ccc2c3c(c4cc(OC)c(O)cc4c2c1)CN1CCC[C@H]1[C@H]3O [Compound (2), tylophorinidine] | 5.5 | 2 fold | at least 4 fold | 12 |
| COc1cc2c3c(c4ccc(O)cc4c2cc1OC)[C@H](O)[C@@H]1CCCN1C3 [Compound (3), tylophoridicine E] | 2.5 | – | at least 4 fold | 17 |
| COc1ccc2c3c(c4cc(OC)c(OC)cc4c2c1)CN1CCC[C@H]1C3 [Compound (4), 2-demethoxytylophorine] | 3 | about 4 fold | at least 4 fold | 5 |
